These are yes or no findings as the source states them, for the method shown. In cells and extracts the contact can be indirect. Some results given as binding are weak or reduced against the parent protein; the word gives no strength.
How the values were obtained:
[1] = target: α4 nAChR subunit (mouse (endogenous in STC-1)) (UniProt O70174); test: co-IP; 1 mg STC-1 cell extract in modified radio-immunoprecipitation assay buffer (50 mM Tris-Cl pH 7.4, 1% Nonidet P-40, 150 mM NaCl, 1 mM EDTA) with 2 μg subunit antibody for 2 h at 4°C, Protein A/G-plus agarose overnight at 4°C; Western blot; IgG as negative control
[2] = target: β4 nAChR subunit (mouse (endogenous in STC-1)) (UniProt Q8R493); test: as above

The chains behind the UniProt entries cited, without tags or fusion partners. Where a name states a change or a piece, a line headed by the entry shows the natural chain unless it says otherwise. Residues count along the entry.
UniProt O70174, residues 31-629: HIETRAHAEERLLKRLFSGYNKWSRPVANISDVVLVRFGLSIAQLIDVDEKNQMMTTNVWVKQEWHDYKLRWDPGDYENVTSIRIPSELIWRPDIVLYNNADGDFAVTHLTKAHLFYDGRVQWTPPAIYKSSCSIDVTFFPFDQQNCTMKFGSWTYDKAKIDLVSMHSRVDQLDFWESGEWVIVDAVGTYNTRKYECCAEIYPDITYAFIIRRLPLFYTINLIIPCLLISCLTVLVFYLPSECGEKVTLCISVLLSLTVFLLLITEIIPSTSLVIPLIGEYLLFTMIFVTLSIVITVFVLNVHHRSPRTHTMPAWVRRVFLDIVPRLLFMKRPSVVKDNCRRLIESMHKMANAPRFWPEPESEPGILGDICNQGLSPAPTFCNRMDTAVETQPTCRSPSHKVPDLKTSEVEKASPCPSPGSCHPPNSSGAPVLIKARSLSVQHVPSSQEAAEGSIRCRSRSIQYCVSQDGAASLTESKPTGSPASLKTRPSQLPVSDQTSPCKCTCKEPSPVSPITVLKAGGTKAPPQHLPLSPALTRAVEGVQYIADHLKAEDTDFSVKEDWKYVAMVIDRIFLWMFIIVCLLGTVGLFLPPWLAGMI
UniProt Q8R493, residues 21-495: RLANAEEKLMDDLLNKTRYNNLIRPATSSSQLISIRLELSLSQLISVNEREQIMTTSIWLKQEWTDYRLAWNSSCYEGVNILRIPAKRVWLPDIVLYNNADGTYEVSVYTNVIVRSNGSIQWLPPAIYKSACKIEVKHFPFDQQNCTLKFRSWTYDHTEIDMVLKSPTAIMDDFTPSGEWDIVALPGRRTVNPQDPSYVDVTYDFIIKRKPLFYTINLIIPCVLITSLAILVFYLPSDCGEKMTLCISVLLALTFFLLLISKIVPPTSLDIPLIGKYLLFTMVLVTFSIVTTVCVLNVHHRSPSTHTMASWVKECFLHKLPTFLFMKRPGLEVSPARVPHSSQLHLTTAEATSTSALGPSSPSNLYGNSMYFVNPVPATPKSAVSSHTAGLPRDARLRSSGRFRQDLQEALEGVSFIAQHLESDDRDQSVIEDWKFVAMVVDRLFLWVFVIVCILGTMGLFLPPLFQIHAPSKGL
UniProt Q9ERK7: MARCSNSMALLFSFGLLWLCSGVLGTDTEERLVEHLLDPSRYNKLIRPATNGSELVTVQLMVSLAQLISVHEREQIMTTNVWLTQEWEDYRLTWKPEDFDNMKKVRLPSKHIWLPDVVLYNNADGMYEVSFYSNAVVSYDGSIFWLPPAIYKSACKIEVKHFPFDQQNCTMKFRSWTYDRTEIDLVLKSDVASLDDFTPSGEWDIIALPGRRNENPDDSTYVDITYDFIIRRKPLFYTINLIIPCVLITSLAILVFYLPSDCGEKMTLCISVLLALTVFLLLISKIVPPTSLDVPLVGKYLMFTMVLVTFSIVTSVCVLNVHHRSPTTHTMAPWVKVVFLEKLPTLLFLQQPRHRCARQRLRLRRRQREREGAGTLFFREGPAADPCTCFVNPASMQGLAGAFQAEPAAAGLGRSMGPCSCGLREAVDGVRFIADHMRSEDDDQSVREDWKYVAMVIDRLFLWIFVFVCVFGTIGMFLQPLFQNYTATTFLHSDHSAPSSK
UniProt Q8R4G9, residues 26-499: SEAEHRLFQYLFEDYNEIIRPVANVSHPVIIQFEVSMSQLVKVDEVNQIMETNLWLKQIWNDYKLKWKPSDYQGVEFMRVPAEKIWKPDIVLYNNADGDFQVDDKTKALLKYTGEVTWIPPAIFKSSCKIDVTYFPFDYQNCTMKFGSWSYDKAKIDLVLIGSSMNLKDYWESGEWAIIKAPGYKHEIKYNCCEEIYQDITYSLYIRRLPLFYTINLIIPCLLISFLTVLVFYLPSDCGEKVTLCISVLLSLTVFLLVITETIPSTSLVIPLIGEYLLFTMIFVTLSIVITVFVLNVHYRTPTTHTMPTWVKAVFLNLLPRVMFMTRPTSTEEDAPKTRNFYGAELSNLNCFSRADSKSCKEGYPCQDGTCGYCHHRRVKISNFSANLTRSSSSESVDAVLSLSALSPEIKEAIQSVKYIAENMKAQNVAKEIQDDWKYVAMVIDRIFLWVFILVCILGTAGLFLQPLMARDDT

| binding [1] | binding [2] | Substance |
| --- | --- | --- |
| binds |  | β2 nAChR subunit (from UniProt Q9ERK7 26-501) (receptor) |
|  | binds | α3 nAChR subunit (from UniProt Q8R4G9 26-499) (receptor) |

— publication PMC5112875
